# Experimental data taken from doi:10.1101/544239.
# By UniProt entry, the sequences of proteins in these tests, tags left out.
# UniProt B5Z6X0: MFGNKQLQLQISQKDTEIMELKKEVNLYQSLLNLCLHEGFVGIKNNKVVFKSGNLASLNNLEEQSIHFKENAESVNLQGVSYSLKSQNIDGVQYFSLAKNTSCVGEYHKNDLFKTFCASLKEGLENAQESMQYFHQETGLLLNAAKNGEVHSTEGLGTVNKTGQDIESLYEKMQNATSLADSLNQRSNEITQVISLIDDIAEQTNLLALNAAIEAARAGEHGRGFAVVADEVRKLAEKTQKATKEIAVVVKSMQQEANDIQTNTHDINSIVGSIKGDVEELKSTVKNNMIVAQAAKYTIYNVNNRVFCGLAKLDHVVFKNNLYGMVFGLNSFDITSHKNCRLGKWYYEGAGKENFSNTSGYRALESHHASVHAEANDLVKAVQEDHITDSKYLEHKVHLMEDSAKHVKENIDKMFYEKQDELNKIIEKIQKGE
# Results are given in words; binding and its absence hold for the method and conditions named. Some binding calls cover weakened binding; strength is not graded here.
# Target: Helicobacter pylori transducer-like protein D (TlpD), strain SS1 (Helicobacter pylori (SS1 strain)) (UniProt B5Z6X0)
# Assay: fluorescence polarisation
substance,measurement,value
"Helicobacter pylori transducer-like protein D (TlpD), strain SS1 (from UniProt B5Z6X0 1-433) (receptor)",binding,binds
